{
  "source": "ChEMBL document CHEMBL4316593",
  "about": "(Eur J Med Chem, 2019)",
  "type_in_all_cases": "cell-based",
  "settings_in_all_cases": "U-87MG ATCC",
  "key": {"[1]": {"experiment": "Inhibition of RTK/PI3K/AKT/mTOR signaling in human U87 cells assessed as down regulation of LUCAT1 gene expression at cytotoxic IC50 measured after 48 hrs relative to control"}, "[2]": {"experiment": "Inhibition of RTK/PI3K/AKT/mTOR signaling in human U87 cells assessed as down regulation of MTHFD2L gene expression at cytotoxic IC50 measured after 48 hrs relative to control"}, "[3]": {"experiment": "Inhibition of RTK/PI3K/AKT/mTOR signaling in human U87 cells assessed as down regulation of KIF3B gene expression at cytotoxic IC50 measured after 48 hrs relative to control"}, "[4]": {"experiment": "Inhibition of RTK/PI3K/AKT/mTOR signaling in human U87 cells assessed as down regulation of FKBP3 gene expression at cytotoxic IC50 measured after 48 hrs relative to control"}, "[5]": {"experiment": "Inhibition of RTK/PI3K/AKT/mTOR signaling in human U87 cells assessed as down regulation of SLC36A1 gene expression at cytotoxic IC50 measured after 48 hrs relative to control"}, "[6]": {"experiment": "Inhibition of RTK/PI3K/AKT/mTOR signaling in human U87 cells assessed as down regulation of FAM219A gene expression at cytotoxic IC50 measured after 48 hrs relative to control"}, "[7]": {"experiment": "Inhibition of RTK/PI3K/AKT/mTOR signaling in human U87 cells assessed as down regulation of UFD1 gene expression at cytotoxic IC50 measured after 48 hrs relative to control"}, "[8]": {"experiment": "Inhibition of RTK/PI3K/AKT/mTOR signaling in human U87 cells assessed as down regulation of HOXA9 gene expression at cytotoxic IC50 measured after 48 hrs relative to control"}, "[9]": {"experiment": "Inhibition of RTK/PI3K/AKT/mTOR signaling in human U87 cells assessed as down regulation of CTNNB1 gene expression at cytotoxic IC50 measured after 48 hrs relative to control"}, "[10]": {"experiment": "Inhibition of RTK assessed as Inhibition of RTK/PI3K/AKT/mTOR signaling in human U87 cells assessed as down regulation of mTOR gene expression at cytotoxic IC50 measured after 48 hrs relative to control"}, "[11]": {"experiment": "Inhibition of RTK/PI3K/AKT/mTOR signaling in human U87 cells assessed as down regulation of SP100 gene expression at cytotoxic IC50 measured after 48 hrs relative to control"}, "[12]": {"experiment": "Inhibition of RTK/PI3K/AKT/mTOR signaling in human U87 cells assessed as down regulation of FAM126A gene expression at cytotoxic IC50 measured after 48 hrs relative to control"}, "[13]": {"experiment": "Inhibition of RTK/PI3K/AKT/mTOR signaling in human U87 cells assessed as down regulation of PLRG1 gene expression at cytotoxic IC50 measured after 48 hrs relative to control"}, "[14]": {"experiment": "Inhibition of RTK/PI3K/AKT/mTOR signaling in human U87 cells assessed as down regulation of PSMF1 gene expression at cytotoxic IC50 measured after 48 hrs relative to control"}, "[15]": {"experiment": "Inhibition of RTK/PI3K/AKT/mTOR signaling in human U87 cells assessed as up regulation of PDE2A gene expression at cytotoxic IC50 measured after 48 hrs relative to control"}, "[16]": {"experiment": "Inhibition of RTK/PI3K/AKT/mTOR signaling in human U87 cells assessed as up regulation of epithelial membrane protein 1 gene expression at cytotoxic IC50 measured after 48 hrs relative to control"}, "[17]": {"experiment": "Inhibition of RTK/PI3K/AKT/mTOR signaling in human U87 cells assessed as up regulation of t-complex 11 like 2 gene expression at cytotoxic IC50 measured after 48 hrs relative to control"}, "[18]": {"experiment": "Inhibition of RTK/PI3K/AKT/mTOR signaling in human U87 cells assessed as up regulation of proline and serine rich 2 gene expression at cytotoxic IC50 measured after 48 hrs relative to control"}, "[19]": {"experiment": "Inhibition of RTK/PI3K/AKT/mTOR signaling in human U87 cells assessed as up regulation of SLIT-ROBO Rho GTPase activating protein 1 gene expression at cytotoxic IC50 measured after 48 hrs relative to control"}, "[20]": {"experiment": "Inhibition of RTK/PI3K/AKT/mTOR signaling in human U87 cells assessed as up regulation of heat shock transcription factor 4 gene expression at cytotoxic IC50 measured after 48 hrs relative to control"}, "[21]": {"experiment": "Inhibition of RTK/PI3K/AKT/mTOR signaling in human U87 cells assessed as up regulation of G protein subunit gamma 7 gene expression at cytotoxic IC50 measured after 48 hrs relative to control"}, "[22]": {"experiment": "Inhibition of RTK/PI3K/AKT/mTOR signaling in human U87 cells assessed as up regulation of glyceraldehyde-3-phosphate dehydrogenase gene expression at cytotoxic IC50 measured after 48 hrs relative to control"}, "[23]": {"experiment": "Inhibition of RTK/PI3K/AKT/mTOR signaling in human U87 cells assessed as up regulation of myeloma overexpressed gene expression at cytotoxic IC50 measured after 48 hrs relative to control"}, "[24]": {"experiment": "Inhibition of RTK/PI3K/AKT/mTOR signaling in human U87 cells assessed as up regulation of pleckstrin homology domain containing A4 gene expression at cytotoxic IC50 measured after 48 hrs relative to control"}, "[25]": {"experiment": "Inhibition of RTK/PI3K/AKT/mTOR signaling in human U87 cells assessed as up regulation of protein phosphatase 3 catalytic subunit beta gene expression at cytotoxic IC50 measured after 48 hrs relative to control"}, "[26]": {"experiment": "Inhibition of RTK/PI3K/AKT/mTOR signaling in human U87 cells assessed as up regulation of DNA polymerase iota gene expression at cytotoxic IC50 measured after 48 hrs relative to control"}, "[27]": {"experiment": "Inhibition of RTK/PI3K/AKT/mTOR signaling in human U87 cells assessed as up regulation of filamin B gene expression at cytotoxic IC50 measured after 48 hrs relative to control"}, "[28]": {"experiment": "Inhibition of RTK/PI3K/AKT/mTOR signaling in human U87 cells assessed as up regulation of transducin like enhancer of split 2 gene expression at cytotoxic IC50 measured after 48 hrs relative to control"}, "[29]": {"experiment": "Inhibition of RTK/PI3K/AKT/mTOR signaling in human U87 cells assessed as up regulation of ERF gene expression at cytotoxic IC50 measured after 48 hrs relative to control"}, "[30]": {"experiment": "Inhibition of RTK/PI3K/AKT/mTOR signaling in human U87 cells assessed as up regulation of RAB3B gene expression at cytotoxic IC50 measured after 48 hrs relative to control"}, "[31]": {"experiment": "Inhibition of RTK/PI3K/AKT/mTOR signaling in human U87 cells assessed as up regulation of SLC1A5 gene expression at cytotoxic IC50 measured after 48 hrs relative to control"}, "[32]": {"experiment": "Inhibition of RTK/PI3K/AKT/mTOR signaling in human U87 cells assessed as up regulation of RAB4A gene expression at cytotoxic IC50 measured after 48 hrs relative to control"}},
  "note": "The source gives many values for each of these; only a part stands here.",
  "data": [
    {"smiles": "CC(=O)C(=NNc1ccccc1C#N)C(C)=O", "values": [
      {"measurement": "log2FC", "setting": "[1]", "value": -2.23},
      {"measurement": "log2FC", "setting": "[2]", "value": -1.45},
      {"measurement": "log2FC", "setting": "[3]", "value": -1.34},
      {"measurement": "log2FC", "setting": "[4]", "value": -1.28},
      {"measurement": "log2FC", "setting": "[5]", "value": -1.26},
      {"measurement": "log2FC", "setting": "[6]", "value": -1.02},
      {"measurement": "log2FC", "setting": "[7]", "value": -0.916},
      {"measurement": "log2FC", "setting": "[8]", "value": -0.844},
      {"measurement": "log2FC", "setting": "[9]", "value": -0.667},
      {"measurement": "log2FC", "setting": "[10]", "value": -1.09},
      {"measurement": "log2FC", "setting": "[11]", "value": -0.597},
      {"measurement": "log2FC", "setting": "[12]", "value": -0.587},
      {"measurement": "log2FC", "setting": "[13]", "value": -0.559},
      {"measurement": "log2FC", "setting": "[14]", "value": -0.447},
      {"measurement": "log2FC", "setting": "[15]", "value": 1.95},
      {"measurement": "log2FC", "setting": "[16]", "value": 1.52},
      {"measurement": "log2FC", "setting": "[17]", "value": 1.46},
      {"measurement": "log2FC", "setting": "[18]", "value": 1.18},
      {"measurement": "log2FC", "setting": "[19]", "value": 1.17},
      {"measurement": "log2FC", "setting": "[20]", "value": 1.17},
      {"measurement": "log2FC", "setting": "[21]", "value": 1.17},
      {"measurement": "log2FC", "setting": "[22]", "value": 1.14},
      {"measurement": "log2FC", "setting": "[23]", "value": 1.11},
      {"measurement": "log2FC", "setting": "[24]", "value": 1.01},
      {"measurement": "log2FC", "setting": "[25]", "value": 0.887},
      {"measurement": "log2FC", "setting": "[26]", "value": 0.875},
      {"measurement": "log2FC", "setting": "[27]", "value": 0.727},
      {"measurement": "log2FC", "setting": "[28]", "value": 0.686},
      {"measurement": "log2FC", "setting": "[29]", "value": 0.639},
      {"measurement": "log2FC", "setting": "[30]", "value": 0.632},
      {"measurement": "log2FC", "setting": "[31]", "value": 0.615},
      {"measurement": "log2FC", "setting": "[32]", "value": 0.485}
    ]}
  ]
}
